# The other results are listed elsewhere or left out.
# Amino acid sequences for entries named in this document (tags omitted). A change or cut given only in a name is not applied to a line headed by its entry.
# UniProt Q9UBI6: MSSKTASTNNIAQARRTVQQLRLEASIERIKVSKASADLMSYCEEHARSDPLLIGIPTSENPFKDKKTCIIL
# UniProt Q9HC44: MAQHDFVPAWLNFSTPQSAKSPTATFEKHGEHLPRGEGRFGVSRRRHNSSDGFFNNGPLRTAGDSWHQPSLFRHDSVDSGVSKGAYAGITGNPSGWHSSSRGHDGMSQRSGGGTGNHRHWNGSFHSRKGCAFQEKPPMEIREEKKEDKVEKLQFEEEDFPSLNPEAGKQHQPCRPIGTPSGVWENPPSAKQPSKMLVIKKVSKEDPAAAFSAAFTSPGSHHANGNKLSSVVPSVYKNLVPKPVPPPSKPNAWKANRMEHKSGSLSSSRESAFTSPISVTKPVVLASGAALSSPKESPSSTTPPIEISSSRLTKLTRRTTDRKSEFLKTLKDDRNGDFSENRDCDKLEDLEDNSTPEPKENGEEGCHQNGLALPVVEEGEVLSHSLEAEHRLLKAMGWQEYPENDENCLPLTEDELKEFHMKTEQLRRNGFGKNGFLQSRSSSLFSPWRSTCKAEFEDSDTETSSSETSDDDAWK
# UniProt P29992, whole entry, looked up: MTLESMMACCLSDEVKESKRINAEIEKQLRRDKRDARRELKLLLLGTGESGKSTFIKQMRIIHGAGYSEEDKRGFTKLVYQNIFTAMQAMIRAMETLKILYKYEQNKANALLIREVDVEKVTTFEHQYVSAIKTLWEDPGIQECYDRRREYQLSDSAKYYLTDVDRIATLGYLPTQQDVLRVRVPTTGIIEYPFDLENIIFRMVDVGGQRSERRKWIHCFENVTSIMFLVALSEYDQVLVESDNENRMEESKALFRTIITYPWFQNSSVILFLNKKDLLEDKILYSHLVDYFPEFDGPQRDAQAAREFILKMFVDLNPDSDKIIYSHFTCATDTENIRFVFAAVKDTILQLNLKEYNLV
# UniProt Q99795: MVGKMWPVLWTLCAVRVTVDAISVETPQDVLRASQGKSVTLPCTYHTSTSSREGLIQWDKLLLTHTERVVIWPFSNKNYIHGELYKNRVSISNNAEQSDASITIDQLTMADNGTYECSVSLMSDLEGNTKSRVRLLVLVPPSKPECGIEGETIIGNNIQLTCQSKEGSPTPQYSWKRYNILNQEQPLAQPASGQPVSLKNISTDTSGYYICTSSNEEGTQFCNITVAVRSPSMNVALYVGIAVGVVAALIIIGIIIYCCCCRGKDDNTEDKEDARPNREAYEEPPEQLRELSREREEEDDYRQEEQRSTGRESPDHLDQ
# UniProt Q9NU53: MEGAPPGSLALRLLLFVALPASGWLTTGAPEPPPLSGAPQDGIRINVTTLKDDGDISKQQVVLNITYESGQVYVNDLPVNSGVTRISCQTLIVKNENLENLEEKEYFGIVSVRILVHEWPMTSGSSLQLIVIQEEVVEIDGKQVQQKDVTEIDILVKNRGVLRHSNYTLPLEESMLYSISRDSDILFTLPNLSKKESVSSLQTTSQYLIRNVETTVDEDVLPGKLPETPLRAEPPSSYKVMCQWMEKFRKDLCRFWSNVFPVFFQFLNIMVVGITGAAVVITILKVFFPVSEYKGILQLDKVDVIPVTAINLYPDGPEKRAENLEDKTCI
# UniProt Q6ZS86: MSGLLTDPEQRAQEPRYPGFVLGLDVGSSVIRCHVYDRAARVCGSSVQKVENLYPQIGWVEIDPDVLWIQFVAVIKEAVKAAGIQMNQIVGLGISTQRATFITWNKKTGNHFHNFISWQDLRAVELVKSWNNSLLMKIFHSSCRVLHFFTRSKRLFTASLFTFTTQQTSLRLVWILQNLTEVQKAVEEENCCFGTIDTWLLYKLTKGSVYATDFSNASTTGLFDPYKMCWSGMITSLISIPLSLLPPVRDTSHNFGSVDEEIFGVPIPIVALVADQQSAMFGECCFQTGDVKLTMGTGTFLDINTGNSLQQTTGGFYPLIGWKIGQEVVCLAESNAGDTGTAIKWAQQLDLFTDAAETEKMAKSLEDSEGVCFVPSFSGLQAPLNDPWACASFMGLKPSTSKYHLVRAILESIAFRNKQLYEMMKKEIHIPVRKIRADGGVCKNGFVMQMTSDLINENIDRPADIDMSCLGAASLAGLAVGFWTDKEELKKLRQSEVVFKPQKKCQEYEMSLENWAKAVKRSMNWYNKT
# UniProt Q8WWB7: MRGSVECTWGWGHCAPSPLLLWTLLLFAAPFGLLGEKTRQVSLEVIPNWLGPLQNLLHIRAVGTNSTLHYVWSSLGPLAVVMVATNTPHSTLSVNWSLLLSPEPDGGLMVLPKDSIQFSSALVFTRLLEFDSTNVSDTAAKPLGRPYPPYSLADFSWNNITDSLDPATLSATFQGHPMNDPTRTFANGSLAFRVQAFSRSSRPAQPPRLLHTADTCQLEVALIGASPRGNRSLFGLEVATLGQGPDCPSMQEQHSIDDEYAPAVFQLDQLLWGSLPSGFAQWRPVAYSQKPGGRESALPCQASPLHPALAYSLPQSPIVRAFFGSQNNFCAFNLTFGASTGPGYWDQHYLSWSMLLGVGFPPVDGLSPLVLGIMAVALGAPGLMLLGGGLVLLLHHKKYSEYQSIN
# UniProt Q96I76: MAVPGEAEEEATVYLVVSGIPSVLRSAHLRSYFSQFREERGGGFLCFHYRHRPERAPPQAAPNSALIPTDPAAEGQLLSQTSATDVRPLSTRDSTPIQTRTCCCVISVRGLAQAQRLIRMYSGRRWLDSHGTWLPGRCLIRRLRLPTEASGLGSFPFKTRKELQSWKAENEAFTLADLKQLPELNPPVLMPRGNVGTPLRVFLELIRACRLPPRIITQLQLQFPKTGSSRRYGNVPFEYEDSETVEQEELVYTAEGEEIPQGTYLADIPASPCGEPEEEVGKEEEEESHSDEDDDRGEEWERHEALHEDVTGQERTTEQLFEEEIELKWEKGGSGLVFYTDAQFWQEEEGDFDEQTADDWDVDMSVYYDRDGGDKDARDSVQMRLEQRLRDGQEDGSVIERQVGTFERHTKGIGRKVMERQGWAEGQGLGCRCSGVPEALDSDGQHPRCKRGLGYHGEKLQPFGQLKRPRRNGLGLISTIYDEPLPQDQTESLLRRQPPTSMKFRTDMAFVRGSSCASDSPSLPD
# UniProt Q9HCL2: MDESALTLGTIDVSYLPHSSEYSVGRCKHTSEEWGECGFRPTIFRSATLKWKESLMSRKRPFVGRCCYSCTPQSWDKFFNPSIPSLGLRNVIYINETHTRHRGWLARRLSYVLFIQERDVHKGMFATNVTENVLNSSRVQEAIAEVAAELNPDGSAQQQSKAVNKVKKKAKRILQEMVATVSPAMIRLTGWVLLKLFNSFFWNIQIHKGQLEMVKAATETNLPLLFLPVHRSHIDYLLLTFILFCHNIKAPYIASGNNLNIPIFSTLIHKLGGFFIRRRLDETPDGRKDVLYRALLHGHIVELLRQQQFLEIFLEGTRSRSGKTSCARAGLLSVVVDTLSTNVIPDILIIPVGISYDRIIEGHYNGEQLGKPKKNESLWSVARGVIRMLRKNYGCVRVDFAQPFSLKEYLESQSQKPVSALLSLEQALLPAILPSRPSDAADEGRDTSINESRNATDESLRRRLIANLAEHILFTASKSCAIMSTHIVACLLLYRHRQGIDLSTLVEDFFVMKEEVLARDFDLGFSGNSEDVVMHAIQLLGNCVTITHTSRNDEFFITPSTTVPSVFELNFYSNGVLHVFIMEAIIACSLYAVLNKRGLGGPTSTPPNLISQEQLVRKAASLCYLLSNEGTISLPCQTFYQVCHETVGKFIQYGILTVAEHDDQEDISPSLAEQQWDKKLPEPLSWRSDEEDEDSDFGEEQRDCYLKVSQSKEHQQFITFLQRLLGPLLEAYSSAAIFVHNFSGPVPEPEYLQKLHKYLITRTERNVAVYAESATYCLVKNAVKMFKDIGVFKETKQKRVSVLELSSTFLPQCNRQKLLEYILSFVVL
# UniProt P63092, whole entry, looked up: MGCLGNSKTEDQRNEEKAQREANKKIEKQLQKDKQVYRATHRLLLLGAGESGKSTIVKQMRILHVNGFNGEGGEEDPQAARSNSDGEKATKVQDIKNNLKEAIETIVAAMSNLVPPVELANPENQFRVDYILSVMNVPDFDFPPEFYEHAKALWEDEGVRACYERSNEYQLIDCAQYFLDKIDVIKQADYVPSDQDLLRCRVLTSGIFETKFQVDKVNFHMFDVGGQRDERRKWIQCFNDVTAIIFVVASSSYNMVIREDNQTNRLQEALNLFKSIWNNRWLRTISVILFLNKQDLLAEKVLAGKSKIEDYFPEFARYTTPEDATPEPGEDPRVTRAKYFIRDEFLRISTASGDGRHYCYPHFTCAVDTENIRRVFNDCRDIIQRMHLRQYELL
# UniProt Q9H9Y4: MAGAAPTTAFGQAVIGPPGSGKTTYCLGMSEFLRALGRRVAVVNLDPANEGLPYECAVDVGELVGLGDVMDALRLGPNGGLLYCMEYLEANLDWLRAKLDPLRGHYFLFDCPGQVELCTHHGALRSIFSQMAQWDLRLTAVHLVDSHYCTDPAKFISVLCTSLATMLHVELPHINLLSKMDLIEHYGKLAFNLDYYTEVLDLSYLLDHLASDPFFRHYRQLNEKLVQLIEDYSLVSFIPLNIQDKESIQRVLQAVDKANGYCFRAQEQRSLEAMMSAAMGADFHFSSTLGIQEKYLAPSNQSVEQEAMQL
# UniProt Q9HAV0, whole entry, looked up: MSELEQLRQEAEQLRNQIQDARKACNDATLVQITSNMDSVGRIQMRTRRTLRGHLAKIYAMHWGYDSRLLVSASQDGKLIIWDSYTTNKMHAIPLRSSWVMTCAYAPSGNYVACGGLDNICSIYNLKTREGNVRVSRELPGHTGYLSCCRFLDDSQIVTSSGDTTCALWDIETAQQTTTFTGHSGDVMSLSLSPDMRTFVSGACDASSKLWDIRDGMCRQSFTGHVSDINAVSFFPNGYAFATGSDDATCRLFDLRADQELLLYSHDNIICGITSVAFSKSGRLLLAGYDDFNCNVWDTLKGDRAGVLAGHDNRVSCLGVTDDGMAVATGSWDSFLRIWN
# UniProt P35754: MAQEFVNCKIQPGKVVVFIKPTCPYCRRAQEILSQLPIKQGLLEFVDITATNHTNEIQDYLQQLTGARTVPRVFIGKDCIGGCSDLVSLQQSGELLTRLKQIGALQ
# UniProt I6L899: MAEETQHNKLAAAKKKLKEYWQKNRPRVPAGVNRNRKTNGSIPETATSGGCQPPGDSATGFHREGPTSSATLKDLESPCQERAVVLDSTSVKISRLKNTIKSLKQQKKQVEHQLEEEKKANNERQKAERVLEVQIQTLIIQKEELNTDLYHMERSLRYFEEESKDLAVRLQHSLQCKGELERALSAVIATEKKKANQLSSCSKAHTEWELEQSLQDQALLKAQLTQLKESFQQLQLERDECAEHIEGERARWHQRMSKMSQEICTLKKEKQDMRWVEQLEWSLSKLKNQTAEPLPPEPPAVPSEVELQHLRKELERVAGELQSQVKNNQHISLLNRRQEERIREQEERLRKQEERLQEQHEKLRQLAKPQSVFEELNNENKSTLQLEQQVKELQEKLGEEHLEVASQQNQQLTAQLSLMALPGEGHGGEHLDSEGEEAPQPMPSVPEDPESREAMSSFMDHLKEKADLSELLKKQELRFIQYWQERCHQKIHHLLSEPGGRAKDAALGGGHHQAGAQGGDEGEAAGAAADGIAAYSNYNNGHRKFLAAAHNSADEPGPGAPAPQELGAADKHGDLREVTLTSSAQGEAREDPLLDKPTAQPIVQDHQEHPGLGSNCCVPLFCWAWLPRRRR
# UniProt Q9BQQ3: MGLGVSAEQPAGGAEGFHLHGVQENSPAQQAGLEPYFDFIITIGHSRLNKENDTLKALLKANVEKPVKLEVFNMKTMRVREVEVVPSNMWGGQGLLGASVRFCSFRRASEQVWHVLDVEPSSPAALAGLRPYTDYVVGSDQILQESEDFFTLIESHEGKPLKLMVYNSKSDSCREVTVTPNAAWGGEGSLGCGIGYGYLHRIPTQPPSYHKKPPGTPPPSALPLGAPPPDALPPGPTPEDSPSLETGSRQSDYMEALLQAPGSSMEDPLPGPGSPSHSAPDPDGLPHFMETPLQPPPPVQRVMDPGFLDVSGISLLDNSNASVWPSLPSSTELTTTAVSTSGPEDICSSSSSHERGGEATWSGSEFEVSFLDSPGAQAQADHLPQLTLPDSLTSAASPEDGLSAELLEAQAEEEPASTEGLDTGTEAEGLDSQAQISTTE
# UniProt Q15743: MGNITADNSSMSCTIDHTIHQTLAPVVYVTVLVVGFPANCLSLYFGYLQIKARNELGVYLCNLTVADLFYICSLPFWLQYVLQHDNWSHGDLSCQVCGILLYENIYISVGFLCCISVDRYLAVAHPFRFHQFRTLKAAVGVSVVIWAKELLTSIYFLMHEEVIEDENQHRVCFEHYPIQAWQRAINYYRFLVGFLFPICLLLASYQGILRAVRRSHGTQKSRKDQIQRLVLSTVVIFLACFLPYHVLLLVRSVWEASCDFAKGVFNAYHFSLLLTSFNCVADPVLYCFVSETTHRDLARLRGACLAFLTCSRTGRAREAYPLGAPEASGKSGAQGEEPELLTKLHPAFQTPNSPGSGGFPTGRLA
# Columns and labels:
# Assay in all cases: log2 fold change, soluble protein after heating vs DMSO (PISA); higher = thermal stabilisation; K562 lysate, 10 uM; active = over 0.2 and 3.5 SD of the protein, either way, in both replicates (recomputed)
# [1] = compound: C/C(=N\NC(=O)C1=CC(=CC=C1)S(=O)(=O)N2CCOCC2)/C3=C(C=CC(=C3)Cl)O
# How it was run: (§1)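 Quantification was by TMTpro 16plex LC-MS/MS with equalised channel sums, applied to the supernatant after 21,000xg for 90 min. Samples were crude K562 extract at 1 mg/mL protein in PBS pH 7.4 with 1 mM MgCl2, treated with 10 μM compound for 30 min, heated for 3 min across 48°C-58°C, pooled and brought to 0.5% NP-40 at 4°C. Values are log-two fold changes in thermal stability relative to solvent controls, from duplicates.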
# [2] = compound: C1=CC2=C(C=CC(=C2)/C=C\3/C(=O)NC(=NCC4=CC=CS4)S3)N=C1
# How it was run: as §1
# [3] = compound: C1=CC=C2C(=C1)C3=NNC4=CC=CC(=C43)C2=O
# How it was run: as §1
# [4] = compound: CC1=C(C(CC(=O)N1)C2=CC=C(C=C2)C(F)(F)F)C(=O)NC3=C(C=C4C(=C3)C=NN4)F
# How it was run: as §1
# [5] = compound: C1=CC2=NC=CN=C2C=C1/C=C/3\C(=O)NC(=O)S3
# How it was run: as §1
# [6] = compound: C1=CC=C(C=C1)C2=NC(=C(N2)C3=CC=NC=C3)C4=CC(=C(C=C4)Cl)O
# How it was run: as §1
# [7] = compound: C1CCN(C1)C(=O)NC2=CC=CC(=C2)NC3=NC=C(C(=N3)NCCC4=CN=CN4)Br
# How it was run: as §1
# [8] = compound: C1CN(CCC1(CC2=CC=C(C=C2)Cl)N)C3=NC=NC4=C3C=CN4
# How it was run: as §1
# IRAK-1-4 Inhibitor I = compound: C1COCCN1CCN2C3=CC=CC=C3N=C2NC(=O)C4=CC(=CC=C4)[N+](=O)[O-] [IRAK-1-4 Inhibitor I]
# How it was run: as §1
# ibrutinib = compound: C=CC(=O)N1CCC[C@@H](n2nc(-c3ccc(Oc4ccccc4)cc3)c3c(N)ncnc32)C1 [ibrutinib]
# How it was run: as §1
# [9] = compound: CC(=O)c1cnc2ccc(-c3cc(Cl)c(O)c(Cl)c3)nc2c1N[C@H]1CC[C@H](CN(C)C)CC1
# How it was run: as §1
# ralimetinib = compound: CC(C)(C)Cn1c(N)nc2ccc(-c3[nH]c(C(C)(C)C)nc3-c3ccc(F)cc3)nc21 [ralimetinib]
# How it was run: as §1
# [10] = compound: CC(C)(O)CC(=O)NCCn1ccc2ncnc(Nc3ccc(Oc4cccc(C(F)(F)F)c4)c(Cl)c3)c21
# How it was run: as §1
# [11] = compound: CC1=C(C2=C(C=C1)C(=O)C3=CC=CC=C3N2CCCN)C
# How it was run: as §1
# [12] = compound: CC1=C(C=C(C=C1)NC(=O)C2=CC(=CC=C2)C(C)(C)C#N)NC3=CC4=C(C=C3)N=CN(C4=O)C
# How it was run: as §1
# [13] = compound: CC1=C(C=C(C=C1)NC(=O)C2=CC(=CC=C2)N(C)C)NC(=O)C3=CC=C(C=C3)O
# How it was run: as §1
# [14] = compound: CC1=CC=C(C=C1)SC2=C3C=C(SC3=CN=C2)C(=O)N
# How it was run: as §1
# erlotinib = compound: C#Cc1cccc(Nc2ncnc3cc(OCCOC)c(OCCOC)cc23)c1 [erlotinib]
# How it was run: as §1
# [15] = compound: C1=CC(=CC=C1C2=NC3=C(N2)C=C(C=C3)C(=O)N)OC4=CC=C(C=C4)Cl
# How it was run: as §1
# [16] = compound: CC(C)C1=C2N=C(C=C(N2N=C1)NCC3=CC=CC=C3)NCCCCCCN
# How it was run: as §1
Target,log2 fold change [1],log2 fold change [2],log2 fold change [3],log2 fold change [4],log2 fold change [5],log2 fold change [6],log2 fold change [7],log2 fold change [8],log2 fold change (IRAK-1-4 Inhibitor I),log2 fold change (ibrutinib),log2 fold change [9],log2 fold change (ralimetinib),log2 fold change [10],log2 fold change [11],log2 fold change [12],log2 fold change [13],log2 fold change [14],log2 fold change (erlotinib),log2 fold change [15],log2 fold change [16]
GNG12 (UniProt Q9UBI6),inactive: -0.082,inactive: 0.096,inactive: 0.1,inactive: -0.221,,,,,,,,,,,,,,,,
GNA12 (UniProt Q03113),inactive: -0.357,inactive: -0.226,inactive: -0.187,,inactive: -0.003,inactive: 0.071,inactive: -0.04,inactive: -0.144,inactive: 0.038,inactive: -0.034,inactive: 0.03,inactive: -0.033,inactive: -0.023,inactive: -0.041,inactive: 0.03,inactive: 0.101,inactive: 0.002,,,
GPBP1L1 (UniProt Q9HC44),inactive: -0.048,inactive: 0.012,inactive: 0.061,,inactive: -0.023,inactive: -0.005,inactive: -0.005,inactive: -0.045,inactive: 0.057,inactive: 0.055,inactive: -0.12,inactive: 0.022,inactive: -0.007,inactive: 0.016,inactive: 0.064,inactive: -0.011,inactive: -0.061,inactive: 0,inactive: 0.065,inactive: -0.155
GNA11 (UniProt P29992),inactive: 0.044,inactive: -0.101,inactive: -0.001,inactive: -0.008,inactive: 0.035,inactive: -0.025,inactive: 0.007,inactive: 0.015,inactive: 0.025,inactive: -0.02,inactive: 0.032,inactive: -0.015,inactive: -0.003,inactive: 0.017,inactive: 0,inactive: -0.036,inactive: 0.022,inactive: -0.034,inactive: -0.027,inactive: -0.033
GPA33 (UniProt Q99795),inactive: 0.082,inactive: -0.091,inactive: -0.151,inactive: -0.091,inactive: -0.032,inactive: -0.05,inactive: 0.001,inactive: 0.046,inactive: 0.024,inactive: 0.037,inactive: -0.029,inactive: 0.188,inactive: -0.123,inactive: 0,,inactive: -0.024,inactive: 0.026,inactive: -0.014,inactive: -0.002,inactive: -0.067
GINM1 (UniProt Q9NU53),,,,inactive: -0.091,,,,,,,,,,,inactive: 0.262,,,inactive: 0.218,inactive: -0.013,inactive: 0.144
GK5 (UniProt Q6ZS86),,,,,,,,,,,,,,,inactive: 0.105,,,,,
GLMP (UniProt Q8WWB7),inactive: 0.04,inactive: -0.027,inactive: -0.141,inactive: -0.014,,inactive: 0.026,inactive: 0.084,inactive: 0.043,inactive: -0.028,,,inactive: -0.025,inactive: 0.019,inactive: 0.055,inactive: 0.082,inactive: -0.006,,inactive: 0.01,inactive: 0.013,inactive: -0.032
GPATCH3 (UniProt Q96I76),,,,,,inactive: 0.099,,,inactive: 0.163,,,inactive: -0.107,inactive: -0.126,,inactive: 0.005,inactive: 0.005,,inactive: -0.006,inactive: 0.002,inactive: -0.012
GPAM (UniProt Q9HCL2),,,,,,inactive: -0.09,,,inactive: 0.017,,,inactive: 0.034,inactive: 0.004,,,inactive: -0.066,,,,
GNAS isoform 3 (UniProt P63092),,,,,,,,,,,inactive: 0.033,,,,inactive: 0.006,,inactive: 0.01,inactive: 0,inactive: 0.165,inactive: -0.143
GPN2 (UniProt Q9H9Y4),inactive: 0.089,inactive: 0.043,inactive: -0.056,inactive: 0.036,,inactive: -0.041,active: -0.241,inactive: -0.062,inactive: -0.027,,inactive: -0.022,inactive: 0.12,inactive: 0.028,inactive: 0.025,inactive: 0.067,inactive: 0.057,inactive: 0.019,inactive: -0.022,inactive: 0.032,inactive: -0.042
GNB4 (UniProt Q9HAV0),,,,inactive: -0.05,inactive: -0.049,inactive: -0.057,inactive: -0.035,inactive: -0.005,inactive: -0.024,inactive: -0.104,inactive: -0.071,inactive: 0.009,inactive: -0.026,inactive: -0.036,inactive: 0.073,inactive: 0.084,inactive: 0.202,inactive: -0.017,inactive: 0.067,inactive: 0
GLRX (UniProt P35754),inactive: 0.034,inactive: -0.061,inactive: -0.105,,,,inactive: 0.021,inactive: -0.025,,,,,,,inactive: 0.096,,,,,
GOLGA8R (UniProt I6L899),,,,inactive: -0.048,inactive: -0.039,inactive: 0.078,,,inactive: 0.113,inactive: -0.049,inactive: -0.159,inactive: -0.171,inactive: -0.134,inactive: -0.253,inactive: 0.284,inactive: 0.009,inactive: 0.023,inactive: 0.061,inactive: 0.143,inactive: 0.049
GPI (UniProt P06744),inactive: 0.014,inactive: -0.026,inactive: 0.002,inactive: -0.012,inactive: -0.003,inactive: -0.014,inactive: 0.008,inactive: 0.015,,inactive: 0,inactive: 0.011,inactive: 0.018,inactive: 0.019,inactive: 0.031,inactive: -0.025,inactive: -0.023,inactive: -0.001,inactive: -0.012,inactive: 0.002,inactive: -0.006
GORASP1 (UniProt Q9BQQ3),inactive: -0.026,inactive: 0.05,inactive: -0.057,inactive: 0.038,,inactive: 0.01,inactive: 0.049,inactive: 0.018,inactive: -0.023,,inactive: 0.137,inactive: -0.01,inactive: -0.011,inactive: 0.027,inactive: -0.061,inactive: -0.034,inactive: -0.02,inactive: -0.081,inactive: -0.019,inactive: 0.019
GPR68 (UniProt Q15743),,,,,,,,,,,,,,,inactive: 0.113,,,,,

# Retrieved one by one from above, 2 records:
Target,log2 fold change [1],log2 fold change [2],log2 fold change [3],log2 fold change [4],log2 fold change [5],log2 fold change [6],log2 fold change [7],log2 fold change [8],log2 fold change (IRAK-1-4 Inhibitor I),log2 fold change (ibrutinib),log2 fold change [9],log2 fold change (ralimetinib),log2 fold change [10],log2 fold change [11],log2 fold change [12],log2 fold change [13],log2 fold change [14],log2 fold change (erlotinib),log2 fold change [15],log2 fold change [16]
GPR68 (UniProt Q15743),,,,,,,,,,,,,,,inactive: 0.113,,,,,
GPBP1L1 (UniProt Q9HC44),inactive: -0.048,inactive: 0.012,inactive: 0.061,,inactive: -0.023,inactive: -0.005,inactive: -0.005,inactive: -0.045,inactive: 0.057,inactive: 0.055,inactive: -0.12,inactive: 0.022,inactive: -0.007,inactive: 0.016,inactive: 0.064,inactive: -0.011,inactive: -0.061,inactive: 0,inactive: 0.065,inactive: -0.155
